Data as given in PubChem BioAssay AID1259254 (NCATS, 2017).

Screen: 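Finding genes that stop cells copying their DNA twice in one cycle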 (primary screen)
System: human HCT116 colorectal cancer cells
Reagents: single siRNA against human genes
Time to read-out: 3 days
Read-out: 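Imaged Hoechst DNA stain sorts each cell into a cycle phase by DNA amount; per plate, G2 fraction set to 0% for non-targeting and 100% for GMNN siRNA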
Scale: G2 robust z-score and G2 cells, % of GMNN control: higher = more G2 cells, more excess DNA replication
Hit rule: 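An siRNA counts as active if its G2 robust z-score lies at least 5 MADs above the screen median; here such calls match roughly 38% of GMNN control or more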
The whole screen tested about 59,000 reagents; below is a random part of them. About 1,550 of all reagents (2.6%) count as active. 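G2 share is only a proxy for re-replication; each gene was hit by three separate siRNAs, and active genes were retested.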 A number with no mark means an inactive call. The numbers tell different reagents against one gene apart. Not all columns of the deposit are shown. No sequences are given here. The record does not give: the amount of reagent.

For TMED4 #1, the values are G2 robust z-score -0.816; G2 cells, % of GMNN control -2.77.
TMED4 #2 gave G2 robust z-score 1.54; G2 cells, % of GMNN control 13.8.
After knock-down of TMED4 #3, the record shows G2 robust z-score 0.904; G2 cells, % of GMNN control 9.33.
For EVX1 #1 the deposit lists G2 robust z-score 0.537; G2 cells, % of GMNN control 6.75.
For EVX1 #2, the entry reads G2 robust z-score -0.0316; G2 cells, % of GMNN control 2.75.
Silencing of EVX1 #3 came out at: G2 robust z-score -0.496; G2 cells, % of GMNN control -0.525.
Silencing of SNRPB2 #1 came out at: G2 robust z-score 0.163; G2 cells, % of GMNN control 4.12.
SNRPB2 #2 scored G2 robust z-score 0.298; G2 cells, % of GMNN control 5.06.
Depletion of SNRPB2 #3 came out at: G2 robust z-score -0.87; G2 cells, % of GMNN control -3.16.
After knock-down of OR1L4 #1, the record shows G2 robust z-score 3.22; G2 cells, % of GMNN control 25.6.
OR1L4 #2 showed G2 robust z-score 4.57; G2 cells, % of GMNN control 35.1.
Silencing of OR1L4 #3 resulted in: G2 robust z-score -0.491; G2 cells, % of GMNN control -0.487.
Knock-down of PLAAT1 #1 resulted in: G2 robust z-score 0.192; G2 cells, % of GMNN control 4.32.
Silencing of PLAAT1 #2 came out at: G2 robust z-score 0.118; G2 cells, % of GMNN control 3.8.
Against PLAAT1 #3 the deposit lists G2 robust z-score 1.75; G2 cells, % of GMNN control 15.3.
Against CPSF4 #1, the values are G2 robust z-score 1.34; G2 cells, % of GMNN control 12.4.
After knock-down of CPSF4 #2 the results were G2 robust z-score 2.46; G2 cells, % of GMNN control 20.3.
Depletion of CPSF4 #3 resulted in: G2 robust z-score 0.735; G2 cells, % of GMNN control 8.14.
ICAM2 #1 scored G2 robust z-score 0.0234; G2 cells, % of GMNN control 3.13.
Against ICAM2 #2 the deposit lists G2 robust z-score 0.824; G2 cells, % of GMNN control 8.76.
For ICAM2 #3, the values are G2 robust z-score -0.589; G2 cells, % of GMNN control -1.18.
GLMN #1 scored G2 robust z-score -0.409; G2 cells, % of GMNN control 0.0908.
With knock-down of GLMN #2 the results were G2 robust z-score 0.247; G2 cells, % of GMNN control 4.7.
GLMN #3 showed G2 robust z-score 3.33; G2 cells, % of GMNN control 26.4.

Entries listed so far whose target name starts with I or i:
ICAM2 #1: G2 robust z-score = 0.0234; G2 cells, % of GMNN control = 3.13
ICAM2 #2: G2 robust z-score = 0.824; G2 cells, % of GMNN control = 8.76
ICAM2 #3: G2 robust z-score = -0.589; G2 cells, % of GMNN control = -1.18
